Here are results for five substances from patent publication US7662644B2 (priority 2000, dated 2010).

This data set can be described thus: general procedure: Boc solid-phase peptide synthesis; TAMPAL thioester-linker resin; -OCH2-Pam or MBHA resins; HBTU (in situ neutralization). Conditions: for step yield: coupling step.

“LY-(SAOD)-AGCEYRIDRVRLFVDKLDNIAQVPRVGAAHHHHHH” gave a step yield of 58%. As for “SAOD-KKKEKERPEISLPSDFEHTIH-VGFDACTGEFTGMPEQWARLLQT”, the step yield is given as 70%. Same read-out and setting: for LY-(SAOD)-AGCRANK-NH2 the value was “˜85%”. Turning to “TMR-LY-(SAOD)-AGCEYRIDRVRLFVDKLDNIAQVPRVGAAHHHHHH”, for the setting “conjugation step”, the conjugation yield entry is reported as “approximately 50%” and the difficulty met result is given as “it was difficult to achieve high yields”. Turning to TMR-LY-(SAOD)-AGCRANK-NH2, the conjugation yield entry (conjugation step, HPLC integration (labeling efficiency)) is reported as “greater that 95%”.
